Assay results as given in PMC6297353.

Amino acid sequences for entries named in this document (tags omitted). A change or cut given only in a name is not applied to a line headed by its entry.
UniProt Q9HC29: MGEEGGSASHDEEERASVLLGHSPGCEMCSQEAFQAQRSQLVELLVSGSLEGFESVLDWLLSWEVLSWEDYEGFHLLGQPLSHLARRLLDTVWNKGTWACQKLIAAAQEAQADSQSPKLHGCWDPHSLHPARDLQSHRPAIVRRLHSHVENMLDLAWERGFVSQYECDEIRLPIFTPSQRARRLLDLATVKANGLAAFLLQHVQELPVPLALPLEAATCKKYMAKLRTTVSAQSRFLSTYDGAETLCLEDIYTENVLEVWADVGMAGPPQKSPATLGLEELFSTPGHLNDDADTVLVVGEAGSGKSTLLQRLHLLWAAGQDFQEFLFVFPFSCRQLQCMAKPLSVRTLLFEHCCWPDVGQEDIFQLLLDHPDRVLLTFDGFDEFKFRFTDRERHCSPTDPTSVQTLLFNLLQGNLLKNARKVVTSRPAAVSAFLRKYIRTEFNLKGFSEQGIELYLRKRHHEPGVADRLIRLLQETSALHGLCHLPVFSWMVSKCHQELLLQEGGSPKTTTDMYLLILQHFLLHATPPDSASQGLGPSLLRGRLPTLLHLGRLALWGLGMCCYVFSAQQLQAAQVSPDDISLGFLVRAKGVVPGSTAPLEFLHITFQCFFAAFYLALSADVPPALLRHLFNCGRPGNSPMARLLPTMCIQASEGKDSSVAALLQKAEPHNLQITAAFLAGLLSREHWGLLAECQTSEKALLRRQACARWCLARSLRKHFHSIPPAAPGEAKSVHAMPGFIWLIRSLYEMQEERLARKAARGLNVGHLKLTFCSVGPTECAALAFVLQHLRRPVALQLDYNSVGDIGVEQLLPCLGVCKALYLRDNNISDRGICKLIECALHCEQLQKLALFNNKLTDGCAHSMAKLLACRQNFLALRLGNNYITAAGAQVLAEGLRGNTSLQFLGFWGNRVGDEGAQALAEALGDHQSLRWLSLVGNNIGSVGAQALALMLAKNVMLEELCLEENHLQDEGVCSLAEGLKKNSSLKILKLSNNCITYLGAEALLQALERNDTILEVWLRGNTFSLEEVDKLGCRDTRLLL

Legend:
FLAG-tagged NOD2 (human) = FLAG-tagged NOD2 (human) (UniProt Q9HC29); test: co-IP; HEK293T transfected with the indicated constructs, harvested in RIPA buffer 24 h after transfection; FLAG-tagged NOD2 precipitated 3 h at 4 °C with anti-FLAG M2 agarose; immunoblot
Myc-BirA*-NOD2 (human) [1] = target: Myc-BirA*-NOD2 (human) (UniProt Q9HC29); test: co-IP; THP-1 Myc-BirA*-NOD2 cells, MDP 10 µg/mL for 2 h with or without MG132 (12.5 µM); lysis in 50 mM HEPES pH 7.5, 150 mM NaCl, 1% iGPAL; anti-Myc magnetic beads 3 h; immunoblot
Myc-BirA*-NOD2 (human) [2] = target: Myc-BirA*-NOD2 (human) (UniProt Q9HC29); test: condition: only cells treated with LPS (0.2 µg/mL, 2 h) instead of MDP; co-IP; THP-1 Myc-BirA*-NOD2 cells treated with LPS (0.2 µg/mL) for 2 h instead of MDP; precipitation with anti-Myc; immunoblot

Molecule	binding (FLAG-tagged NOD2 (human))	binding (Myc-BirA*-NOD2 (human) [1])	binding (Myc-BirA*-NOD2 (human) [2])
Myc-tagged NLRP12 (wild type) (from UniProt P59046)	binds		
NLRP12 (in THP-1 Myc-BirA*-NOD2 cells) (protein, UniProt P59046-7 1-1062) MLRTAGRDGLCRLSTYLEELEAVELKKFKLYLGTATELGEGKIPWGSMEKAGPLEMAQLLITHFGPEEAWRLALSTFERINRKDLWERGQREDLVRDTPPGGPSSLGNQSTCLLEVSLVTPRKDPQETYRDYVRRKFRLMEDRNARLGECVNLSHRYTRLLLVKEHSNPMQVQQQLLDTGRGHARTVGHQASPIKIETLFEPDEERPEPPRTVVMQGAAGIGKSMLAHKVMLDWADGKLFQGRFDYLFYINCREMNQSATECSMQDLIFSCWPEPSAPLQELIRVPERLLFIIDGFDELKPSFHDPQGPWCLCWEEKRPTELLLNSLIRKKLLPELSLLITTRPTALEKLHRLLEHPRHVEILGFSEAERKEYFYKYFHNAEQAGQVFNYVRDNEPLFTMCFVPLVCWVVCTCLQQQLEGGGLLRQTSRTTTAVYMLYLLSLMQPKPGAPRLQPPPNQRGLCSLAADGLWNQKILFEEQDLRKHGLDGEDVSAFLNMNIFQKDINCERYYSFIHLSFQEFFAAMYYILDEGEGGAGPDQDVTRLLTEYAFSERSFLALTSRFLFGLLNEETRSHLEKSLCWKVSPHIKMDLLQWIQSKAQSDGSTLQQGSLEFFSCLYEIQEEEFIQQALSHFQVIVVSNIASKMEHMVSSFCLKRCRSAQVLHLYGATYSADGEDRARCSAGAHTLLVQLRPERTVLLDAYSEHLAAALCTNPNLIELSLYRNALGSRGVKLLCQGLRHPNCKLQNLRLKRCRISSSACEDLSAALIANKNLTRMDLSGNGVGFPGMMLLCEGLRHPQCRLQMIQLRKCQLESGACQEMASVLGTNPHLVELDLTGNALEDLGLRLLCQGLRHPVCRLRTLWLKICRLTAAACDELASTLSVNQSLRELDLSLNELGDLGVLLLCEGLRHPTCKLQTLRLGICRLGSAACEGLSVVLQANHNLRELDLSFNDLGDWGLWLLAEGLQHPACRLQKLWLDSCGLTAKACENLYFTLGINQTLTDLYLTNNALGDTGVRLLCKRLSHPGCKLRVLWLFGMDLNKMTHSRLAALRVTKPYLDIGC		binds	no binding
Myc-tagged NLRP12 Δ-PYD linker (200 aa–1061 aa) (domain or fragment, UniProt P59046 200-1061) FEPDEERPEPPRTVVMQGAAGIGKSMLAHKVMLDWADGKLFQGRFDYLFYINCREMNQSATECSMQDLIFSCWPEPSAPLQELIRVPERLLFIIDGFDELKPSFHDPQGPWCLCWEEKRPTELLLNSLIRKKLLPELSLLITTRPTALEKLHRLLEHPRHVEILGFSEAERKEYFYKYFHNAEQAGQVFNYVRDNEPLFTMCFVPLVCWVVCTCLQQQLEGGGLLRQTSRTTTAVYMLYLLSLMQPKPGAPRLQPPPNQRGLCSLAADGLWNQKILFEEQDLRKHGLDGEDVSAFLNMNIFQKDINCERYYSFIHLSFQEFFAAMYYILDEGEGGAGPDQDVTRLLTEYAFSERSFLALTSRFLFGLLNEETRSHLEKSLCWKVSPHIKMDLLQWIQSKAQSDGSTLQQGSLEFFSCLYEIQEEEFIQQALSHFQVIVVSNIASKMEHMVSSFCLKRCRSAQVLHLYGATYSADGEDRARCSAGAHTLLVQLPERTVLLDAYSEHLAAALCTNPNLIELSLYRNALGSRGVKLLCQGLRHPNCKLQNLRLKRCRISSSACEDLSAALIANKNLTRMDLSGNGVGFPGMMLLCEGLRHPQCRLQMIQLRKCQLESGACQEMASVLGTNPHLVELDLTGNALEDLGLRLLCQGLRHPVCRLRTLWLKICRLTAAACDELASTLSVNQSLRELDLSLNELGDLGVLLLCEGLRHPTCKLQTLRLGICRLGSAACEGLSVVLQANHNLRELDLSFNDLGDWGLWLLAEGLQHPACRLQKLWLDSCGLTAKACENLYFTLGINQTLTDLYLTNNALGDTGVRLLCKRLSHPGCKLRVLWLFGMDLNKMTHSRLAALRVTKPYLDIGC	binds		
Myc-tagged NLRP12 R284X (domain or fragment, UniProt P59046 1-283) MLRTAGRDGLCRLSTYLEELEAVELKKFKLYLGTATELGEGKIPWGSMEKAGPLEMAQLLITHFGPEEAWRLALSTFERINRKDLWERGQREDLVRDTPPGGPSSLGNQSTCLLEVSLVTPRKDPQETYRDYVRRKFRLMEDRNARLGECVNLSHRYTRLLLVKEHSNPMQVQQQLLDTGRGHARTVGHQASPIKIETLFEPDEERPEPPRTVVMQGAAGIGKSMLAHKVMLDWADGKLFQGRFDYLFYINCREMNQSATECSMQDLIFSCWPEPSAPLQELI	binds		

Results are given in words; binding and its absence hold for the method and conditions named. Binding seen in cells or lysates may run through a third protein. For some assays here: Binding calls can cover weak binding; strength is not graded here. Where a sequence is shown, tags or fusion partners need not be part of it.
